Test results published in PubChem BioAssay AID2685 (National Center for Advancing Translational Sciences (NCATS), 2010).
The other results are listed elsewhere or left out. These are further read-outs of the screen, such as a control signal, another cell line or another target. No call is given for them. Most of these compounds were active or inconclusive in the main read-out, so they are no random draw. The note in brackets gives the kind of curve behind each potency; many fits are weak.

Experiment: qHTS Assay for Lipid Storage Modulators in Drosophila S3 Cells;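 on cell number change: cells counted by Cell Tracker Red CMTPX staining in the red channel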
Conditions: BODIPY lipid droplet fluorescence, 18-24 h; for cell number change: measured here: cell count max response, cells fed with added oleic acid
How it was run: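 Drosophila S3 cells loaded with oleic acid (400 uM, as added) and compounds at several concentrations; lipid droplets imaged by 488-nm laser-scanning cytometry, 500–530 nm intensity and object ratio to cell channel. Percent activity normalized to 20 uM Triacsin C.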

[1] = measured here: cell number channel AC50, cells fed with added oleic acid
[2] = measured here: lipid fluorescence (Fed channel) AC50, cells fed with added oleic acid

SMILES | cell number change | AC50 [1] | AC50 [2]
CCOC(=O)N1CCN(Cc2ccccc2F)CC1 | 3.59% |  | 
O=C(N/C(=C/c1cccc([N+](=O)[O-])c1)C(=O)N1CCOCC1)c1ccc(Br)cc1 | 31.7% | 13000 nM [rising, single point] | 
CCOc1ccc(/C=C2/SC(=O)NC2=S)cc1 | -6.23% |  | 
COC(=O)Cc1ccc2sc(-c3ccccc3)nc2c1 | 52.6% | 29100 nM [rising, single point] | 
O=C(COC(=O)C1CCN(c2ccc(C(F)(F)F)cn2)CC1)Nc1ccc(F)cc1[N+](=O)[O-] | 24.5% |  | 
COc1cc2c(cc1OC)-c1cc3ccc4c(c3c[n+]1CC2)OCO4 | 8.65% |  | 1030 nM [rising, full curve, poor fit]
O=C(CCNS(=O)(=O)c1ccccc1C(F)(F)F)NCc1ccc2c(c1)OCO2 |  | 1640 nM [rising, partial curve] | 1460 nM [rising, partial curve, poor fit]
Cc1cc(C(=O)NCC(=O)OCC(=O)N(C)C2CCCCC2)ccc1[N+](=O)[O-] | 10.5% |  | 
NC(=O)c1c(NC(=O)C(=O)N2CCOCC2)sc2c1CCC2 | -11.1% |  | 5170 nM [rising, single point]
CS(=O)(=O)N(CC(=O)O)c1cc(Cl)cc(Cl)c1 | -18.8% |  | 
O=C(CN1CCN(Cc2ccc(Cl)cc2)CC1)N/N=C/C=C/c1ccccc1[N+](=O)[O-] | 44.6% | 2910 nM [rising, partial curve] | 
Cn1nc(CC(=O)NCc2ccc(F)cc2)c2ccccc2c1=O | -18.6% |  | 29100 nM [falling, single point]
Cc1ccccc1S(=O)Cc1ccc(C(=O)NCCN2CCOCC2)o1 (stereo not drawn) | 1.47% |  | 4110 nM [rising, full curve]
CCN1CCN(Cc2ccc3c(c2)Cc2ccccc2-3)CC1 | 10.8% |  | 
O=C(CCCc1nc(-c2ccccc2)no1)NC1CCCC1 | -2.61% |  | 
COC(=O)C1C/C(=N\NS(=O)(=O)c2ccc(C)cc2)c2ccsc2C1 (stereo not drawn) | 2.51% |  | 11600 nM [rising, single point]
CCC(=O)N1CCc2cc(S(=O)(=O)N3CCN(c4cc(C)ccc4C)CC3)ccc21 | -1.7% |  | 29100 nM [rising, single point]
CN(CCO)c1cnccn1 | -52% | 29100 nM [falling, single point] | 23100 nM [falling, single point]
Cc1cc(C)n2nc(SCc3cc(=O)oc4ccc5ccccc5c34)nc2n1 | -11.3% |  | 
C[C@]12CCC(O)CC1CCC1C2CC[C@]2(C)C(c3cc(C(F)(F)F)n[nH]3)CCC12 (stereo partly drawn) | -0.863% |  | 2060 nM [rising, partial curve]
O=C1CN(C(=O)NCC(=O)N2CCCC2)c2ccccc2N1 | 7.93% |  | 

Laid out differently: results already given.
SMILES,cell number change,AC50 [1],AC50 [2]
Cc1cc(C)n2nc(SCc3cc(=O)oc4ccc5ccccc5c34)nc2n1,-11.3%,,
C[C@]12CCC(O)CC1CCC1C2CC[C@]2(C)C(c3cc(C(F)(F)F)n[nH]3)CCC12 (stereo partly drawn),-0.863%,,"2060 nM [rising, partial curve]"

Carrying on:

SMILES | cell number change | AC50 [1] | AC50 [2]
COc1ccccc1Cc1noc(COc2cccc(C)c2C)n1 |  | 3660 nM [rising, single point] | 
CC(C)(C)SC(=O)CC1NS(=O)(=O)OCC1NC(=O)OCC(Cl)(Cl)Cl (stereo not drawn) | -10.7% |  | 29100 nM [rising, single point]
COc1ccc(Sc2ncnc3onc(C)c23)cc1 | -40.2% | 1300 nM [falling, full curve, poor fit] | 1030 nM [falling, full curve]
S=C(NCCc1ccccc1)N1CCN(C(c2ccccc2)c2ccccc2)CC1 | 15.3% | 920 nM [falling, full curve] | 
C[C@H](NC(=O)c1ccco1)C(=O)NCc1cccs1 | -8.93% |  | 164 nM [rising, full curve, poor fit]
C=CCn1c(=O)/c(=C\c2ccccn2)s/c1=C(/C#N)C(=O)NCC1CCCO1 (stereo not drawn) |  |  | 580 nM [rising, single point]
COCCNc1c2c(c(C#N)c3nc4ccccc4n13)CCCC2 | 11.2% | 4.11 nM [rising, full curve, poor fit] | 
O=C(NC1CCCCCC1)c1ccc(CS(=O)(=O)Cc2ccc(F)cc2)o1 | -21.5% |  | 23100 nM [falling, partial curve]
COCCCn1c(=O)/c(=C\c2cccc(OC)c2OC)s/c1=C(/C#N)C(=O)Nc1ccc(C(=O)O)cc1 | 19.7% |  | 2060 nM [falling, single point]
Cc1cc(NS(=O)(=O)c2ccc(NC(=O)C(CC(C)C)N3C(=O)c4ccccc4C3=O)cc2)nc(C)n1 (stereo not drawn) | -20.6% |  | 16400 nM [rising, single point]
O=C1C=C(c2ccccc2Oc2ccccc2)C[C@@H](c2ccc3c(c2)OCO3)C1 | 1.1% |  | 25900 nM [falling, single point]
Cc1ccc(C)c(OCc2cc(C(=O)N3CCC(N4CCCC(O)C4)CC3)no2)c1 (stereo not drawn) | 22.9% |  | 29100 nM [falling, single point]
O=C(CNS(=O)(=O)Cc1ccccc1)NCc1ccccc1 | -21.1% |  | 100 nM [rising, full curve, poor fit]
CC1OC(Nc2ccc(N=Nc3ccccc3)cc2)C(O)C(O)C1O (stereo not drawn) |  | 517 nM [rising, single point] | 
CCCCOc1ccc(C(=O)Nc2ccc(N3CCN(C(C)=O)CC3)cc2)cc1 | 2.84% | 6510 nM [rising, single point] | 2060 nM [rising, full curve]
Cc1c(C(=O)N2CCN(S(=O)(=O)c3ccc(F)cc3)CC2)oc2ccccc12 |  |  | 651 nM [rising, full curve, poor fit]
Cc1ccc2nc(SCC(=O)NCc3ccco3)[nH]c2c1 | 60.2% | 18400 nM [rising, partial curve] | 
O=C(OCC(=O)N1CCOCC1)c1ccc(Cl)nc1 | 40.3% |  | 25900 nM [rising, partial curve, poor fit]
COc1cccc(N2CCN(C(=O)c3ccc(=O)oc3)CC2C)c1 (stereo not drawn) |  | 1160 nM [falling, single point] | 920 nM [falling, single point]
O=S(=O)(c1ccc2nc(Nc3ccccc3)ccc2c1)N1CCCCC1 | 12.6% | 820 nM [rising, full curve] | 651 nM [rising, full curve, poor fit]
